From patent publication US20130022606A1
No constants are given. Whether binding was seen depends on the method and setting. Some binding calls cover weakened binding; strength is not graded here.

Columns and labels:
[1] = target: T1, extracellular domain of human PRLR (soluble, monomeric, expressed in HEK293 cells) (human) (UniProt P16471); experiment: Biacore epitope grouping, antibody immobilized, soluble ECD-PRLR captured
T1 sequence: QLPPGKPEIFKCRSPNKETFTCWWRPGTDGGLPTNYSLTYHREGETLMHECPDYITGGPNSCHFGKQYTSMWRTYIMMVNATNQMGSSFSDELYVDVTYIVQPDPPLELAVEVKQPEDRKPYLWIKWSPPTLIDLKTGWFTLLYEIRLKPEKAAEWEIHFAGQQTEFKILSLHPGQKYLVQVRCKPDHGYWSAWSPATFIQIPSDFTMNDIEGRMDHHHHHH

[2] = target: T2, murine prolactin receptor on cells (HEK293 and Ba/F3 cells stably transfected with murine PRLR) (mouse) (UniProt Q08501); experiment: flow cytometry on HEK293 cells stably expressing murine PRLR, fixed concentration
T2 sequence (looked up): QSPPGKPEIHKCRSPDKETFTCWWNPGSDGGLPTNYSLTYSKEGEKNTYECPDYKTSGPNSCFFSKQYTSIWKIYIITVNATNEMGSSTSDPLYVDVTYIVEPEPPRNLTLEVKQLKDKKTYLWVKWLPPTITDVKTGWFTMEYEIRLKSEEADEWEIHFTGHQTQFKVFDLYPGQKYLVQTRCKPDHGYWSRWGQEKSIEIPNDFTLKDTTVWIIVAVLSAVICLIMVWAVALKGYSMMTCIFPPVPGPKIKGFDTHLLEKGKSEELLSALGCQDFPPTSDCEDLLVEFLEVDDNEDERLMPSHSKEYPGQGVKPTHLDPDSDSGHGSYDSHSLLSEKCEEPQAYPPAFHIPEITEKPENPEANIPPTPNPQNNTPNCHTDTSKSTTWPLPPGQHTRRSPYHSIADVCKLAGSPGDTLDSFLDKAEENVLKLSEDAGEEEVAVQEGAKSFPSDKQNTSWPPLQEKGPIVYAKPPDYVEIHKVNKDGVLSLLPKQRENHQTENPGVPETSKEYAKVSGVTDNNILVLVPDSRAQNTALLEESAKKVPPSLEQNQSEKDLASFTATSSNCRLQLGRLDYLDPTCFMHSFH

[3] = target: human prolactin receptor on cells (T47D cells; HEK293 and Ba/F cells stably transfected with human PRLR) (human) (UniProt P16471); experiment: flow cytometry (FACS) on HEK293 cells stably expressing human PRLR, single concentration of 0.37 µg/ml IgG, detection with PE-conjugated goat anti-human IgG, median fluorescence intensity
[4] = target: T2, murine prolactin receptor on cells (HEK293 and Ba/F3 cells stably transfected with murine PRLR) (mouse); experiment: flow cytometry (FACS) on HEK293 cells stably expressing murine PRLR, single concentration of 0.37 µg/ml IgG, detection with PE-conjugated goat anti-human IgG, median fluorescence intensity
[5] = target: human prolactin receptor on cells (T47D cells; HEK293 and Ba/F cells stably transfected with human PRLR) (human) (UniProt P16471); experiment: flow cytometry on HEK293 cells stably expressing human PRLR, fixed concentration

Measured: binding

B1: 001-E06 (IgG1) (antibody, V domains shown)
VH: QVELLESGGGLVQPGGSLRLSCAASGFTFSSYWMSWVRQAPGKGLEWVSSVSDTGTDTHYADSVKGRFTISRDNSKNTLYLQMNSLRAEDTAVYYCAKTPLAYSSGWYYFDYWGQGTLVTVSS
VL: DIVLTQPPSASGTPGQRVTISCSGSSSNIGSNTVNWYQQLPGTAPKLLIYRNYQRPSGVPDRFSGSKSGTSASLAISGLRSEDEADYYCQSYDSSLSGSVFGGGTKLTVLG
binds: all assays above
